Measurements as given in patent publication US20060084798.
For part of these data: Negatives hold for the conditions tested. For part of these data: Weaker means in comparison with the reference protein, sequence or condition of that experiment. For part of these data: Construct, isoform or probe ends are uncertain for at least one entry.

Chains of the proteins cited; added tags and fusions are not shown. Lines headed by an entry give the natural chain unless they say otherwise; changes in a name come on top. A line that says so, or that is headed by a name, gives the form on record, which may keep a tag or linker.
UniProt O00327, other isoform, or with tags, fused parts or gaps: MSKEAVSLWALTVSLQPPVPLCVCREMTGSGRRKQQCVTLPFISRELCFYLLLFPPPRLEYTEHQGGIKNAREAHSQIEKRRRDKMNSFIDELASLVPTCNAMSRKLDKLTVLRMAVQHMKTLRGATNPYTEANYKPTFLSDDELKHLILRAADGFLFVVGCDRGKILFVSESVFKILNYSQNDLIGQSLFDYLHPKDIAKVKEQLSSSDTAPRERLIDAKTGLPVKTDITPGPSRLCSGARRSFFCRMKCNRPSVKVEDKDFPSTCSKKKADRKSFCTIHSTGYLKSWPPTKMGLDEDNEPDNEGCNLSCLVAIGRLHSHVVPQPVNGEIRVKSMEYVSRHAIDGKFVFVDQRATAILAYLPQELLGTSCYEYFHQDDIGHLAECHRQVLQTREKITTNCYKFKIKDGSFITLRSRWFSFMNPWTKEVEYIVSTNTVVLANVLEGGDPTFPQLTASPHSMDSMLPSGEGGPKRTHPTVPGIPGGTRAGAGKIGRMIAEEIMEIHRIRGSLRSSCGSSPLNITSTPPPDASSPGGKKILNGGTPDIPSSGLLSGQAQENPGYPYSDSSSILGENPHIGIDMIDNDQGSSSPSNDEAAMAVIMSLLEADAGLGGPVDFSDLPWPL
UniProt Q0VBL6, other isoform, or with tags, fused parts or gaps: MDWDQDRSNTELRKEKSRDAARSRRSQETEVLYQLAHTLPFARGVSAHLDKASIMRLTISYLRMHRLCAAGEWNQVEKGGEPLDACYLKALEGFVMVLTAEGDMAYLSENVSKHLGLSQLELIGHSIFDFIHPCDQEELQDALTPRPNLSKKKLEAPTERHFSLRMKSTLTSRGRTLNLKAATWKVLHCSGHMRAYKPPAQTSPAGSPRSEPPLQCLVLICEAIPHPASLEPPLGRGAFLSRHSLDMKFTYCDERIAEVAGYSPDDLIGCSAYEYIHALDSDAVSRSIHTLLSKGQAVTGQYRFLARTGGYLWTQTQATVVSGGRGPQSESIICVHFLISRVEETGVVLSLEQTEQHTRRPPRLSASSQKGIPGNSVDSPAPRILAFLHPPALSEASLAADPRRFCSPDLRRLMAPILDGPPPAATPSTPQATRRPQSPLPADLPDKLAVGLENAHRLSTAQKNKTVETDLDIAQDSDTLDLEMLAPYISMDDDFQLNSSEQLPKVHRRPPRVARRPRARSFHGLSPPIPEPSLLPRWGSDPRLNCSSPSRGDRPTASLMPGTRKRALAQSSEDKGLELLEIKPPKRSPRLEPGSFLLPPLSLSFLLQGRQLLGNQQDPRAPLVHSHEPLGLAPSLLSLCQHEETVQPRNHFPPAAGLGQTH
UniProt Q99814, other isoform, or with tags, fused parts or gaps: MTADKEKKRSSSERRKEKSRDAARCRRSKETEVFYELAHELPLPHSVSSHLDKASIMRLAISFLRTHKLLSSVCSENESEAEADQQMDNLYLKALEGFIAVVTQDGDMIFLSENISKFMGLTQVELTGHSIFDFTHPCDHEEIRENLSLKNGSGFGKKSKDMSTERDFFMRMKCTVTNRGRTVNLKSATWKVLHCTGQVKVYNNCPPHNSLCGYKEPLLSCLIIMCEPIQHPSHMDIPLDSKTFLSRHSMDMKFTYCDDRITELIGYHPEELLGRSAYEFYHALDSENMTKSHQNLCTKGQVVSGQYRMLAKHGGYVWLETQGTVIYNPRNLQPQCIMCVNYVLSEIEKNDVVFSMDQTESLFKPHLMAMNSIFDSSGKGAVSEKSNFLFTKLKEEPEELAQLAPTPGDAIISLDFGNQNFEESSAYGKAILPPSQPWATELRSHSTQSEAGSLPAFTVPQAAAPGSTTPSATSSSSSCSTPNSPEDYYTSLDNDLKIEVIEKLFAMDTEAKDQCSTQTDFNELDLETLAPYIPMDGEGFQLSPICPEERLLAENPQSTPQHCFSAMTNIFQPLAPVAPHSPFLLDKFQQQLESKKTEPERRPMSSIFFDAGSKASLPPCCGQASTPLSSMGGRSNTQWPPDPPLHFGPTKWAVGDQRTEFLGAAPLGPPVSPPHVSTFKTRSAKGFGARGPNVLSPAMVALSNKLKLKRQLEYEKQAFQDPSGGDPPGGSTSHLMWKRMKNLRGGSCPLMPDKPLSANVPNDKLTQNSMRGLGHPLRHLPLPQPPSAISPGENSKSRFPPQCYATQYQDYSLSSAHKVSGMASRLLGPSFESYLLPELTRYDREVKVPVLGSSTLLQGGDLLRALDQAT
UniProt Q16665: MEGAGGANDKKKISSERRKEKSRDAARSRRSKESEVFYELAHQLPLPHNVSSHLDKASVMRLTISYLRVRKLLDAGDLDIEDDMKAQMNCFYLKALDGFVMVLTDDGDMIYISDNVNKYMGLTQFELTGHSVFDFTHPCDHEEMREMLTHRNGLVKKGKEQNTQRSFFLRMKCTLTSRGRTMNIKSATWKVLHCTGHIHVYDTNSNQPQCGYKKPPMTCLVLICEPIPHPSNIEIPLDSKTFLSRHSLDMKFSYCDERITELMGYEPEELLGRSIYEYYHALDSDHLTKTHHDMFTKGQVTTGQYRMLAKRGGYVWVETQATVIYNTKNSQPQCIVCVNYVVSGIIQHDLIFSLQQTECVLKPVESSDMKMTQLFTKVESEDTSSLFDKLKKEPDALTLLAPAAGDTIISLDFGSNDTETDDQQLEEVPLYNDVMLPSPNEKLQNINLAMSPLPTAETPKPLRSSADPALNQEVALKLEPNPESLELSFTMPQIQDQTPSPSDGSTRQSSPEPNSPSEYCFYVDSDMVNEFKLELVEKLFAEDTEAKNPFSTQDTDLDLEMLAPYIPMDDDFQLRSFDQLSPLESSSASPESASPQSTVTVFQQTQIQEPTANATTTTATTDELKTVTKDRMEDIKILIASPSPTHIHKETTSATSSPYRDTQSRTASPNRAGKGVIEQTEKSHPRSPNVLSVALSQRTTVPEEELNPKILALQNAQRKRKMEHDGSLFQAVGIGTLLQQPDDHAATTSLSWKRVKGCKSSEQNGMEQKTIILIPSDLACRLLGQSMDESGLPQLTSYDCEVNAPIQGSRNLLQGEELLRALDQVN
MOP3/MOP4 (transfected) (Homo sapiens), one chain, as listed by the source, chain 2 of 2: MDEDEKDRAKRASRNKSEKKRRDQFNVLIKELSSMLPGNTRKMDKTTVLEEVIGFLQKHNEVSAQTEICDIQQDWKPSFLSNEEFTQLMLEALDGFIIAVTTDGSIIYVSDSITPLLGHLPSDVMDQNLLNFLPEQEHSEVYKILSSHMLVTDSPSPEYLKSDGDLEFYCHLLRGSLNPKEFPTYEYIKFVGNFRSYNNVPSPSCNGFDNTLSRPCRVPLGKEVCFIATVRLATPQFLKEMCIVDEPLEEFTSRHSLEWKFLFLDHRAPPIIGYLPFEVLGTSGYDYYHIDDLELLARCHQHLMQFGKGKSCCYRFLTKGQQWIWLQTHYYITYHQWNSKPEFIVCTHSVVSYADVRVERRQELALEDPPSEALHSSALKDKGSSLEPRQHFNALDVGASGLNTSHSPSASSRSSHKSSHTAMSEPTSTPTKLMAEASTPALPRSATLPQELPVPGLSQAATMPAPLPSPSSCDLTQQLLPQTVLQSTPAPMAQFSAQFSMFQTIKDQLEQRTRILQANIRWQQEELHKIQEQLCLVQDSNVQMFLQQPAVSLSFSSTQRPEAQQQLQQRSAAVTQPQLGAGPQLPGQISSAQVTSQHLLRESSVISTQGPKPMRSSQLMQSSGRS
MOP3/MOP4 (transfected) (Homo sapiens), one chain, as listed by the source, chain 1 of 2: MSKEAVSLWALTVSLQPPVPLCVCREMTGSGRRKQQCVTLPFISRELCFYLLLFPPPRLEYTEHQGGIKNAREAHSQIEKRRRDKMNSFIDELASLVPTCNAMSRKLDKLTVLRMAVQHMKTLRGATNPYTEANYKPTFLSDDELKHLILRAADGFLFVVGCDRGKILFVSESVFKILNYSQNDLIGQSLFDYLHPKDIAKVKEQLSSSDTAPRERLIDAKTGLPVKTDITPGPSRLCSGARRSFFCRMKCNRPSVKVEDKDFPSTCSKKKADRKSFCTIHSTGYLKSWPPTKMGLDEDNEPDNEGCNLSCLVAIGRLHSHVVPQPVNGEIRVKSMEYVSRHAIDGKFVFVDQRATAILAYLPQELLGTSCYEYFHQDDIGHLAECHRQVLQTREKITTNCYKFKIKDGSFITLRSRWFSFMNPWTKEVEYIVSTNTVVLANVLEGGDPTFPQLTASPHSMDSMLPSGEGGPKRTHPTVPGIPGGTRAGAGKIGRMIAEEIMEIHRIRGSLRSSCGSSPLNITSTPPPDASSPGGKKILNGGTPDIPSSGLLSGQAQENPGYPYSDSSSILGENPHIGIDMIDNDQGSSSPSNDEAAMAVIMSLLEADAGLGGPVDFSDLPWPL
MOP4/ARNT (transfected) (Homo sapiens), one chain, as listed by the source, chain 1 of 2: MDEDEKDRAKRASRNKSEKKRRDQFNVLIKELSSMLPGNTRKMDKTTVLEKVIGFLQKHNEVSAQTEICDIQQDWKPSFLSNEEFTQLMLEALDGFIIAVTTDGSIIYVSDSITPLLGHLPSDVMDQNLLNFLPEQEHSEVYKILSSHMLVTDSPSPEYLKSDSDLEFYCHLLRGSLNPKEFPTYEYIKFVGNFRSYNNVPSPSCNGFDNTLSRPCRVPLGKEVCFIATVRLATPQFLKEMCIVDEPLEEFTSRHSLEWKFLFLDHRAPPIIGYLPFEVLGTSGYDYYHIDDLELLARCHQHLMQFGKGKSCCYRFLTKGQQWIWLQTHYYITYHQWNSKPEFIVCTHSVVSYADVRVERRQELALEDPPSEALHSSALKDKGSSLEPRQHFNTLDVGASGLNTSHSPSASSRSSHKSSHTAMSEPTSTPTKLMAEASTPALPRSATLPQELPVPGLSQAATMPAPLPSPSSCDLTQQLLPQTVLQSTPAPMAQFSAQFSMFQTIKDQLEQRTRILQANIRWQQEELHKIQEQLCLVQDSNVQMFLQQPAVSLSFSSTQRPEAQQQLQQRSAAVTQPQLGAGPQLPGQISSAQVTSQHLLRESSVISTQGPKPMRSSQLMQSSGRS
MOP3/HIF2alpha (transfected) (Homo sapiens), one chain, as listed by the source, chain 2 of 2: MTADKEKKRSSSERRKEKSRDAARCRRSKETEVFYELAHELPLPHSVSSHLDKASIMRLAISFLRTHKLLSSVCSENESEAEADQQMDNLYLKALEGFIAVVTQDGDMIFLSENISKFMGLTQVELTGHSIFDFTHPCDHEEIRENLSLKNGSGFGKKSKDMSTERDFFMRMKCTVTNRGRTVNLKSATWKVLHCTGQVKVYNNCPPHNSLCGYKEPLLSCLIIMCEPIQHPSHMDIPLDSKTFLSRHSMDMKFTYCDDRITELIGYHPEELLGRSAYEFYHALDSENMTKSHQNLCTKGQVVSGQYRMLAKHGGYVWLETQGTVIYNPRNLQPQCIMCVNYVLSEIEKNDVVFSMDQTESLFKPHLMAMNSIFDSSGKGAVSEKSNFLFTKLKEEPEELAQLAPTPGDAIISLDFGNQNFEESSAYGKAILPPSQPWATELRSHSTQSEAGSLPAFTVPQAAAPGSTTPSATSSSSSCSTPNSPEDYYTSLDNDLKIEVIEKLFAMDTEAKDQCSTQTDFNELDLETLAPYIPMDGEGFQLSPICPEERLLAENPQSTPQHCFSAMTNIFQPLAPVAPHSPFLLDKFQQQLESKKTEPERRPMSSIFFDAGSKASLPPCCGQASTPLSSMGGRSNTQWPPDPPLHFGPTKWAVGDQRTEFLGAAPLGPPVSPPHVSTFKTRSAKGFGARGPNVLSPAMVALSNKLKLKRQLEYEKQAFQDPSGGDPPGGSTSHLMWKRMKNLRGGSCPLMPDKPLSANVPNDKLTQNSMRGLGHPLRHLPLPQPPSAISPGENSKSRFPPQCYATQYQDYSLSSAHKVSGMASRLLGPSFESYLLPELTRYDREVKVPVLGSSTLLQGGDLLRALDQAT
MOP4/ARNT (transfected) (Homo sapiens), one chain, as listed by the source, chain 2 of 2: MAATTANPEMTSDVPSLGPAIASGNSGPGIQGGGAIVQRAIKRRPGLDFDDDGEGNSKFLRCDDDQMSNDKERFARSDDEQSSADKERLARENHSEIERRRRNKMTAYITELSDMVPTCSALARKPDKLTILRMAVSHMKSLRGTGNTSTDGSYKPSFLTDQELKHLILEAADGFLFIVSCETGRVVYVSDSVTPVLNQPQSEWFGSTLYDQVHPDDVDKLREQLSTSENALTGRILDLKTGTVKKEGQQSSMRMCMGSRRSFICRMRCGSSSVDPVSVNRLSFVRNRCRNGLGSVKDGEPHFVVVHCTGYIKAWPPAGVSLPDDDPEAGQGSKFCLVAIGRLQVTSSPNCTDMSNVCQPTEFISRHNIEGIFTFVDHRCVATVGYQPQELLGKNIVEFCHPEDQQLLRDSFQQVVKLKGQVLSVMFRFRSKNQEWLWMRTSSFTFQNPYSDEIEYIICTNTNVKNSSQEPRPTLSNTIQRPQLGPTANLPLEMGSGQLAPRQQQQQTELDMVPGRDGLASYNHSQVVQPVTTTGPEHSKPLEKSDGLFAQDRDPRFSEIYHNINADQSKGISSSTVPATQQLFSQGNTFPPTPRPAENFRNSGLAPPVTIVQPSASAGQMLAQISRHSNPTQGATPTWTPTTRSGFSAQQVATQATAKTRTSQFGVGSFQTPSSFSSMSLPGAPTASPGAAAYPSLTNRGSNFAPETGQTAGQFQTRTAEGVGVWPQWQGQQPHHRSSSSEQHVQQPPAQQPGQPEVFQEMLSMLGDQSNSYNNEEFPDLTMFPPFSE

Legend:
[1] = tested on: MOP1 (HIF1alpha)/ARNT heterodimer (Homo sapiens); test: EMSA; settings: protein translated in vitro
[2] = tested on: MOP3/MOP4 (transfected) (Homo sapiens); test: activity in cells; settings: COS-1 luciferase; protein in cells; only the site is given
[3] = tested on: MOP4/ARNT (transfected) (Homo sapiens); test: activity in cells; settings: no activation over control; protein in cells; only the site is given
[4] = tested on: MOP3/HIF1alpha (transfected) (Homo sapiens); test: activity in cells; settings: COS-1 luciferase; protein in cells; only the site is given
[5] = tested on: MOP3/HIF2alpha (transfected) (Homo sapiens); test: activity in cells; settings: COS-1 luciferase; protein in cells; only the site is given
[6] = biological target: MOP3 (isoform with alternative first 57 codons) (Homo sapiens) (UniProt O00327); test: EMSA; settings: MOP3 alone; protein translated in vitro
[7] = tested on: MOP3/HIF1alpha heterodimer (MOP3 isoform with alternative first 57 codons) (Homo sapiens); test: EMSA; settings: protein translated in vitro
[8] = biological target: MOP7 (HIF3alpha) (Mus musculus) (UniProt Q0VBL6); test: EMSA; settings: MOP7 alone; protein translated in vitro; label: 32P
[9] = biological target: MOP2 (HIF2alpha) (Homo sapiens) (UniProt Q99814); test: EMSA; settings: MOP2 alone; protein translated in vitro; label: 32P
[10] = biological target: MOP1 (HIF1alpha) (Homo sapiens) (UniProt Q16665); test: EMSA; settings: lower than MOP1-ARNT; protein translated in vitro
ARNT (Homo sapiens) = ARNT (Homo sapiens) (UniProt P27540); test: EMSA; settings: lower than MOP1-ARNT; protein translated in vitro

CATGTG (double strand) [CATGTG non-palindromic E-box (full oligo not printed)]
binding result [1]: no binding

GATCGGACACGTGACCATTGGTCACGTGTCCATTGGACACGTGACC / GATCGGTCACGTGTCCAATGGACACGTGACCAATGGTCACGTGTCC [3x M34 reporter insert OL1116/OL1117]
activity on this sequence [2]: 3.3 fold | activity on this sequence [3]: not active

GATCGGATACGTGACCATTGGTTACGTGTCCATTGGATACGTGACC (double strand) [M13 reporter insert OL1155 (reporter carries six M13 copies)]
activity on this sequence [4]: 3.3 fold | activity on this sequence [5]: 3.6 fold

GCCCTACGTGACCC (double strand) [M13 element]
binding result [6]: no binding | binding result ([7]; abolished by MOP3 and HIF1alpha antisera): binds

GCCCTACGTGTTCC (double strand) [HIF1alpha half site fused to alternative MOP3 half site]
binding result ([7]; complex preferred GCCCTACGTGACCC, variant of M13 element): binds more weakly

TCGAGCTGGGCAGGGTACGTGGCAAGGC / TCGAGCCTTGCCACGTACCCTGCCCAGC [OL414/OL415 TACGTG (HRE)]
binding result [8]: no binding | binding result [9]: no binding

TCGAGCTGGGCAGGTCACGTGGCAAGGC / TCGAGCCTTGCCACGTGACCTGCCCAGC [OL445/OL446 CACGTG E-box]
binding result [10]: binds more weakly | binding result (ARNT (Homo sapiens)): binds more weakly
